This note sets out measurements from article PMC6599030.

Chains of the proteins cited; added tags and fusions are not shown.
UniProt Q15836: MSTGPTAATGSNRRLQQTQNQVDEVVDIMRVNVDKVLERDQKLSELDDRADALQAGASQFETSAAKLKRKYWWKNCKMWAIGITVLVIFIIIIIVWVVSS

In the assay the target is T1, GFP-WDFY2 (UniProt Q96P53).
T1 sequence: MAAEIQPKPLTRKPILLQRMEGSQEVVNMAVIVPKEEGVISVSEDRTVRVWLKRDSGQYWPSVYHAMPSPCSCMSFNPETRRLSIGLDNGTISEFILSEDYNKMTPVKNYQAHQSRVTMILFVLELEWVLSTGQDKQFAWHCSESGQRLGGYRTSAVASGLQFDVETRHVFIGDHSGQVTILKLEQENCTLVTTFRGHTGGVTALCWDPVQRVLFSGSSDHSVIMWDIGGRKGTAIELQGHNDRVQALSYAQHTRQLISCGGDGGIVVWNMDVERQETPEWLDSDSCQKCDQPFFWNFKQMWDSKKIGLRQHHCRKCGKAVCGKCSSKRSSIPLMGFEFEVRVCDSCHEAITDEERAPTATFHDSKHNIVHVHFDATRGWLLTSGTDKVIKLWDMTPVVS
In words: affinity purification with mass spectrometry; GFP-trap magnetic beads added to lysates of stable hTERT-RPE1 cells expressing GFP-WDFY2 or GFP (control); lysis buffer 50 mM TRIS, NaCl, 0.25% Triton X100, 1 mM DTT, 50 µM ZnCl2; rotating at 4° for 4 h; label-free quantitative LC-MS/MS.

These are yes or no findings as the source states them, for the method shown. Binding seen in cells or lysates may run through a third protein. Here binding means that the protein was enriched with, or labelled near, the bait; the list need not be complete. Sequences can lack the tags named with a protein.

As to VAMP3 (from UniProt Q15836 1-100), the binding entry is reported as “binds”.
